In the assay the target is T1, mouse Zcytor19 (mouse) (UniProt Q8CGK5).
T1 sequence (looked up): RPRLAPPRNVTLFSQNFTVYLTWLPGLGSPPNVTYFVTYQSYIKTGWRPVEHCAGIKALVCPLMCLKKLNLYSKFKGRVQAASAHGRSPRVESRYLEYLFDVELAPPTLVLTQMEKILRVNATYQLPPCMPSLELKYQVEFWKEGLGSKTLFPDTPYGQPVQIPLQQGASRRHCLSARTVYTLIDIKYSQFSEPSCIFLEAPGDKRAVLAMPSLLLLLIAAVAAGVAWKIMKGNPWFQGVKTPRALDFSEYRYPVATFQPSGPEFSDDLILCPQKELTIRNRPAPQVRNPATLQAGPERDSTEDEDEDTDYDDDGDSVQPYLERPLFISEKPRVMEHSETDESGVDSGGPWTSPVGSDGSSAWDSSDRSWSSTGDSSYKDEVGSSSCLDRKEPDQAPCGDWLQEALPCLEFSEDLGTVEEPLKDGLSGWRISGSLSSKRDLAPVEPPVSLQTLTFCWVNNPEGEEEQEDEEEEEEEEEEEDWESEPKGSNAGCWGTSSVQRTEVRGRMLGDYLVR
The experiment in a line: secretion trap (further experiments).

Results are given in words; binding and its absence hold for the method and conditions named. Binding can be weak; no strength is given.

These results are taken from patent EP1942187B1.

Turning to biotinylated zcyto21CEE (ligand), the binding result is reported as “binds”.
